Paper PMC10606571
These are yes or no findings as the source states them, for the method shown. Binding seen in cells or lysates may run through a third protein. Some entries that bind do so weakly or less than the wild type.

Protein sequences, listed by entry. Tags and fused reporters are not part of them. Residues count along the entry.
UniProt P35869, residues 11-848: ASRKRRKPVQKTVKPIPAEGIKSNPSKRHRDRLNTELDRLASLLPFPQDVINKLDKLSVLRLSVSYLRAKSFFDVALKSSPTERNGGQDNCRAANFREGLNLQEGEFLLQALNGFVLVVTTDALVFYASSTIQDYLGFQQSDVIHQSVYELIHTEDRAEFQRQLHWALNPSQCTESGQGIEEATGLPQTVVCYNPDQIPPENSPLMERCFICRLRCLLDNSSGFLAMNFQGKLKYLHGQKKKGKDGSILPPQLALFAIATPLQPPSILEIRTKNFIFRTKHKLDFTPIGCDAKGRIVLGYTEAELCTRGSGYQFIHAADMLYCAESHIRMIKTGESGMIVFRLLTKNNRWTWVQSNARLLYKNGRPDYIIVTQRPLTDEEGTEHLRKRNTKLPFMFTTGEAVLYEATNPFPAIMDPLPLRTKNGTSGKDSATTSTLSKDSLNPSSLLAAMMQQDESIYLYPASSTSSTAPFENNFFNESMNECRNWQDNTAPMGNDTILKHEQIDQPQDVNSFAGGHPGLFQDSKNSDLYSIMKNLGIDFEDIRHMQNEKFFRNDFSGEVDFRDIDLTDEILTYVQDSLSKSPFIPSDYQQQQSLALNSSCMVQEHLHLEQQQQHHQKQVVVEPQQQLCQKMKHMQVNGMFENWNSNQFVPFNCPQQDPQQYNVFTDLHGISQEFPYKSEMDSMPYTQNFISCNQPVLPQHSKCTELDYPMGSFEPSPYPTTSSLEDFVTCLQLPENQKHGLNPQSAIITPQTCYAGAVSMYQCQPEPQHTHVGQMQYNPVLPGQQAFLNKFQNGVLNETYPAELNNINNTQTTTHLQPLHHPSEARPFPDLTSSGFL
UniProt P11142: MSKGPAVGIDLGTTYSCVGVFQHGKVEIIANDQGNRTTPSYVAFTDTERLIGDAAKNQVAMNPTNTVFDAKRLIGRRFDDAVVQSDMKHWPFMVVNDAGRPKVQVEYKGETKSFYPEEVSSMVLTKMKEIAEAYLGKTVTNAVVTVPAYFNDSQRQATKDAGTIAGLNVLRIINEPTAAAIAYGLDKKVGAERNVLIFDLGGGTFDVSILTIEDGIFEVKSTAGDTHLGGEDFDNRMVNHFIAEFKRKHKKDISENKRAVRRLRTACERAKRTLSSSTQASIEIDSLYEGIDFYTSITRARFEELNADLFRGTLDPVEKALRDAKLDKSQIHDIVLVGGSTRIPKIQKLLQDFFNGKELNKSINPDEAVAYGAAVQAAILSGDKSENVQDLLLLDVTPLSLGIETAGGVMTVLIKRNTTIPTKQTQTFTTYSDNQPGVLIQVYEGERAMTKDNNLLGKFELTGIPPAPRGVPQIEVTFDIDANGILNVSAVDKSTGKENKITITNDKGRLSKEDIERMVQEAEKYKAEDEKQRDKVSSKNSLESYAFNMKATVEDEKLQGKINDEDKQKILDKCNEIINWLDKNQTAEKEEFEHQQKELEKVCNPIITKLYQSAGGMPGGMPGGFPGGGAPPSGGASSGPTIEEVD

Target: aryl hydrocarbon receptor (AHR) (human (endogenous in A549)) (UniProt P35869)
Test: co-IP; A549 cells treated with or without 100 uM CQ for 6 h; about 2 mg whole cell extract with rabbit anti-AHR antibody SA210 and Dynabeads Protein G, IP buffer with 150 mM NaCl and 0.05% Tween-20, 16-18 h in a cold room; Western blot for AHR, LAMP2 and Hsc70

In the case of “heat shock cognate 70 kDa protein (HSC70) (from UniProt P11142 1-646)”, the binding is reported as “binds”.
